These are yes or no findings as the source states them, for the method shown. Some entries that bind do so weakly or less than the wild type. Where a sequence is shown, tags or fusion partners need not be part of it.
Molecular target: T1, His6-Caspase 8 (human Caspase 8) (human), Q14790
T1 chain: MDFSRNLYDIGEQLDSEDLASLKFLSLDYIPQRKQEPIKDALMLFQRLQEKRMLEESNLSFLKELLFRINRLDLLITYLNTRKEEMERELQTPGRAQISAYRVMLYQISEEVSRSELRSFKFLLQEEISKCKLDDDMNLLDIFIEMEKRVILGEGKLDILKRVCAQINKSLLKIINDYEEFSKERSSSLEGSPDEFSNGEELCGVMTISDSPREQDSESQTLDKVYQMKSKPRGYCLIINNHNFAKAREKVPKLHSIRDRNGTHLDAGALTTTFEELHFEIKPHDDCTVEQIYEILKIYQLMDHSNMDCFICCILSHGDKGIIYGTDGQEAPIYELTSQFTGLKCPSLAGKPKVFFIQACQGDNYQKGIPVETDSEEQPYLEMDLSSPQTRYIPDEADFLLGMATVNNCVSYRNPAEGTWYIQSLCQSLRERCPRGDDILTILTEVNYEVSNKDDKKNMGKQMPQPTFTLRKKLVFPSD
Assay: AlphaScreen or HTRF; both purified
Details: remark: other sources report otherwise

binding: binds
B1: GST-Caspase 8, Q14790 1-479 (enzyme)
chain: MDFSRNLYDIGEQLDSEDLASLKFLSLDYIPQRKQEPIKDALMLFQRLQEKRMLEESNLSFLKELLFRINRLDLLITYLNTRKEEMERELQTPGRAQISAYRVMLYQISEEVSRSELRSFKFLLQEEISKCKLDDDMNLLDIFIEMEKRVILGEGKLDILKRVCAQINKSLLKIINDYEEFSKERSSSLEGSPDEFSNGEELCGVMTISDSPREQDSESQTLDKVYQMKSKPRGYCLIINNHNFAKAREKVPKLHSIRDRNGTHLDAGALTTTFEELHFEIKPHDDCTVEQIYEILKIYQLMDHSNMDCFICCILSHGDKGIIYGTDGQEAPIYELTSQFTGLKCPSLAGKPKVFFIQACQGDNYQKGIPVETDSEEQPYLEMDLSSPQTRYIPDEADFLLGMATVNNCVSYRNPAEGTWYIQSLCQSLRERCPRGDDILTILTEVNYEVSNKDDKKNMGKQMPQPTFTLRKKLVFPSD

Reference: article PMC7984827, “A high-content AlphaScreen™ identifies E6-specific small molecule inhibitors as potential therapeutics for HPV^+ head and neck squamous cell carcinomas” (Oncotarget, 2021)
